From publication PMC5430435
Results are given in words; binding and its absence hold for the method and conditions named. Binding seen in cells or lysates may run through a third protein. Some binding calls cover weakened binding; strength is not graded here.

By UniProt entry, the sequences of proteins in these tests, tags left out. Residues count along the entry.
UniProt P22888, residues 27-699: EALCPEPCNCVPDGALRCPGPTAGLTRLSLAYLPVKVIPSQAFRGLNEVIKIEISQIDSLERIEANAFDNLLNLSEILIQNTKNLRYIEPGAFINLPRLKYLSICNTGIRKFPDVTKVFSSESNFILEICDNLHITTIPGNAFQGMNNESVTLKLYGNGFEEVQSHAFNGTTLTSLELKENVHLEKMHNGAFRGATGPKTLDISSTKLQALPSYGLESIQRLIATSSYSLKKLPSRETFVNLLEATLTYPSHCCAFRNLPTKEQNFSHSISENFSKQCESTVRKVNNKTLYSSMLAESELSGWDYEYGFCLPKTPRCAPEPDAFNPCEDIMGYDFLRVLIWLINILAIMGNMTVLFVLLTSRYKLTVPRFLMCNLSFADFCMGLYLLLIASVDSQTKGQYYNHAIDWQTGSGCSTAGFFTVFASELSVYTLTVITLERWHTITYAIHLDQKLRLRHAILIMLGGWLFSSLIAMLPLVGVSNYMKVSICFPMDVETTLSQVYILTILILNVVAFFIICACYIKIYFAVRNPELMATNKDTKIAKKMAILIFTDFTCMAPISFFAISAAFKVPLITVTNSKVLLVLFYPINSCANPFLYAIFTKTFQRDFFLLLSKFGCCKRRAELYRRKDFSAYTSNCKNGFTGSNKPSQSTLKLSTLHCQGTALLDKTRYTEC
UniProt P32121: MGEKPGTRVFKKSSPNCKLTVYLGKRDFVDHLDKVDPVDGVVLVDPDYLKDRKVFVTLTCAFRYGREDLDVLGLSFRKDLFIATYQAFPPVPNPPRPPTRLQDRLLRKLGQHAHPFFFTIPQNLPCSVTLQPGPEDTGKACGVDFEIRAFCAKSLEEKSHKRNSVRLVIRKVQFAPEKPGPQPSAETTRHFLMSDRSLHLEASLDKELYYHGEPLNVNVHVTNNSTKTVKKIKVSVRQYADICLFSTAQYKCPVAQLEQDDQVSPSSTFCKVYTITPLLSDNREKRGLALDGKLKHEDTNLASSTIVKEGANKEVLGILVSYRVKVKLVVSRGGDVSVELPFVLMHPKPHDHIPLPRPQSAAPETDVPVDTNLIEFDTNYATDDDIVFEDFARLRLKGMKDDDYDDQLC

Biological target: hLH/CGR C-terminally fused to the BRET donor Rluc8 (human) (UniProt P22888)
Experiment: FRET or BRET; living HEK293 cells co-expressing hLH/CGR-Rluc8 (donor) and yPET-β-arrestin 2 (acceptor); end point after 30 minutes at 37 °C with increasing concentrations of rhCG or rhLH in PBS 1X, 1 mM HEPES; Coelenterazine h

β-arrestin 2 N-terminally fused to the BRET acceptor yPET (from UniProt P32121 1-409)
binding: binds
